According to PMC7862700:
This is a selection; strong and weak results do not stand in their true shares. At the low end of the ranking, values are background and their order means little.

By UniProt entry, the sequences of proteins in these tests, tags left out. Where a name states a change or a piece, a line headed by the entry shows the natural chain unless it says otherwise.
UniProt Q01892: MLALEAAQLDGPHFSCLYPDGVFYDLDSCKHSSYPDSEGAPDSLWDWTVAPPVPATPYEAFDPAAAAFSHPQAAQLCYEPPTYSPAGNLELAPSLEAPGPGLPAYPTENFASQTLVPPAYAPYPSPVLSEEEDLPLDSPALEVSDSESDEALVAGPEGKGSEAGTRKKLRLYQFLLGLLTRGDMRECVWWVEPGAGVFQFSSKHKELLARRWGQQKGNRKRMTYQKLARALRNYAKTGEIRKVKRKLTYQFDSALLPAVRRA
UniProt P41161: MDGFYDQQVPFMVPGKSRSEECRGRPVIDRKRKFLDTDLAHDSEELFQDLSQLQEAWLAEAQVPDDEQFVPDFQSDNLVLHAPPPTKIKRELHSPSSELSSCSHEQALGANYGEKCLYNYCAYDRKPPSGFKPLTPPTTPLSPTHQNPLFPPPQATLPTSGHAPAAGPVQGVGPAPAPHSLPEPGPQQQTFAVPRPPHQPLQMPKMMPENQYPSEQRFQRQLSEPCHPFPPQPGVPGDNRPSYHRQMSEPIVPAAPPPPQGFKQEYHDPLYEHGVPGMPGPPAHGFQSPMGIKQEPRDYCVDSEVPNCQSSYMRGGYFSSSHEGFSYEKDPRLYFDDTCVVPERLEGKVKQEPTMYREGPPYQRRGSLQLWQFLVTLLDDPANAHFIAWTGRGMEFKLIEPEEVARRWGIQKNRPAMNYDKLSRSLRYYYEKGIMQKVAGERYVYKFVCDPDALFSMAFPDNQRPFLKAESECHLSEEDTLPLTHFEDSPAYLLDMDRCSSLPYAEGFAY
UniProt Q99607: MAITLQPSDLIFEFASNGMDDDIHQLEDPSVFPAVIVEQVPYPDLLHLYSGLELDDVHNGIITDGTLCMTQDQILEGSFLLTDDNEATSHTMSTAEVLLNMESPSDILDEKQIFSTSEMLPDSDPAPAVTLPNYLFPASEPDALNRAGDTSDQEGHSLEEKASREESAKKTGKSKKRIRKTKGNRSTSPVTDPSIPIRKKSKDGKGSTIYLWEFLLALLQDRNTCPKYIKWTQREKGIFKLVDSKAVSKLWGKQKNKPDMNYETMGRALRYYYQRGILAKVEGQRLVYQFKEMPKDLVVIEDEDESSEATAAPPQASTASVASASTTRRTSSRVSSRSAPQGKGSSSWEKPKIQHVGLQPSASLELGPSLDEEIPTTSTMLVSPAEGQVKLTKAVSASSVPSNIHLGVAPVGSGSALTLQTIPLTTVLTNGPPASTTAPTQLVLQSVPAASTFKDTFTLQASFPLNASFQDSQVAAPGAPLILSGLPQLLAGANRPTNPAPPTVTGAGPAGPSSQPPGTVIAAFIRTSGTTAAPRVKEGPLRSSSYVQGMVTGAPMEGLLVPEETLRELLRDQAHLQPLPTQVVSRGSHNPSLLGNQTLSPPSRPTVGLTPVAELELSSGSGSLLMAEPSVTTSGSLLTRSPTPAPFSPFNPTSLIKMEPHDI

Tests used:
Assay in all cases: DAPPL (digital affinity profiling via proximity ligation, sequencing)
Conditions in all cases: 10 mM Tris-HCl pH 7.5, 50 mM NaCl, 1 mM DTT, 4% glycerol, room temperature, 30 min; GST-TFs on glutathione beads, 16-mer random dsDNA library, 0.1% …; high values mean tight binding; double strand, one strand shown; scale: fold enrichment (6-mer frequency, TF over GST control)
FLI1 = target: T1, FLI1 (UniProt Q01543)
T1 sequence: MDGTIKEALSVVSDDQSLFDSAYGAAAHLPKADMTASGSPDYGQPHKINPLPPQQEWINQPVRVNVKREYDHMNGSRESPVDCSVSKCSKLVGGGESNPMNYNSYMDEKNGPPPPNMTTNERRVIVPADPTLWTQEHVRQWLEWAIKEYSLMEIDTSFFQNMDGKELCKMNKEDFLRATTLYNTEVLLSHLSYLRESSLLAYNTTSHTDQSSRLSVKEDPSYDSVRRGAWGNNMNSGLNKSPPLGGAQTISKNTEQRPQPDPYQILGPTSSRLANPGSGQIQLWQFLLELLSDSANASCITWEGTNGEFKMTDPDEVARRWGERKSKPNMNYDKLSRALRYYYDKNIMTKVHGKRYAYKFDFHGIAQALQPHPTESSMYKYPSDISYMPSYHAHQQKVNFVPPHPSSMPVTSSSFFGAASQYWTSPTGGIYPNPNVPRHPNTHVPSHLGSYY

EHF = target: T2, EHF (UniProt Q9NZC4)
T2 sequence: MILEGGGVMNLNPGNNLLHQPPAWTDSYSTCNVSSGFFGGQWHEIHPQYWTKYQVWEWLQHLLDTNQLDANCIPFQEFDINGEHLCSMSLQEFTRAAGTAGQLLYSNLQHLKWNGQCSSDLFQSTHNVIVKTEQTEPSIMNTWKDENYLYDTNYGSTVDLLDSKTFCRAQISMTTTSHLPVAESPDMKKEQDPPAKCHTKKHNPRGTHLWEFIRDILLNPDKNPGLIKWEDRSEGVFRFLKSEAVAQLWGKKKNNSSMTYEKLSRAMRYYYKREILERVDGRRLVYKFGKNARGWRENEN

SPIB = SPIB (UniProt Q01892)
ETV5 = ETV5 (UniProt P41161)
ELF4 = ELF4 (UniProt Q99607)
ETV3L = target: T3, ETV3L (UniProt Q6ZN32)
T3 sequence: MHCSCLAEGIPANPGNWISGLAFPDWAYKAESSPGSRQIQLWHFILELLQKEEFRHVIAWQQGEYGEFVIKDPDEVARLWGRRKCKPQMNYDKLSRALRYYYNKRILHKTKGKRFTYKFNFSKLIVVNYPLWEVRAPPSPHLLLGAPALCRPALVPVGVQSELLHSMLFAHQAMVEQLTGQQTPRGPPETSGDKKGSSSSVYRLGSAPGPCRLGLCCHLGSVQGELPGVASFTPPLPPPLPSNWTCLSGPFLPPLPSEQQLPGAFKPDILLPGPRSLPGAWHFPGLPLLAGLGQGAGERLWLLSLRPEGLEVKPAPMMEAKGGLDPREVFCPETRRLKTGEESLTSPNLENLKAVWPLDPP

| Sequence | binding signal (FLI1) | binding signal (EHF) | binding signal (SPIB) | binding signal (ETV5) | binding signal (ELF4) | binding signal (ETV3L) |
| --- | --- | --- | --- | --- | --- | --- |
| ACTGTC | 1.02 | 0.947 | 1.05 | 0.985 | 0.946 | 0.924 |
| GACCCA | 0.915 | 0.894 | 0.882 | 0.897 | 0.911 | 0.901 |
| TGAACG | 0.953 | 0.959 | 0.921 | 0.944 | 0.996 | 0.927 |
| TCGTCG | 0.966 | 0.893 | 0.919 | 0.929 | 0.919 | 0.872 |
| GGCAGC | 0.877 | 0.987 | 0.971 | 0.97 | 0.936 | 0.971 |
| GGCATA | 0.876 | 0.89 | 0.866 | 0.857 | 0.916 | 0.933 |
| CATCGT | 0.892 |  |  | 0.926 | 0.962 | 0.931 |
| TTGGGA | 0.927 | 0.842 | 0.905 | 0.977 | 0.903 | 0.843 |
| CAAACG | 0.996 | 0.957 | 0.962 | 0.973 | 0.961 | 0.914 |
| GACCGA | 0.905 | 0.836 | 0.735 | 0.824 | 0.83 | 0.909 |
| TGAAGG | 0.913 | 0.932 |  | 0.919 | 0.913 | 0.972 |
| AGATGG | 0.859 | 0.814 | 0.833 | 0.847 | 0.858 | 0.909 |
| GTTCGT | 0.922 | 0.931 | 0.949 | 0.972 | 0.954 | 0.982 |
| ACGCGA | 0.89 | 0.832 | 0.818 | 0.821 | 0.867 | 0.903 |
| GCGACG | 0.943 | 0.894 | 0.965 | 0.861 | 0.947 | 0.94 |
| AGGCTA | 0.922 | 0.883 | 0.906 | 0.972 | 0.901 | 0.851 |
| AGCCCA | 0.932 | 0.934 | 0.965 | 0.99 | 1 | 0.885 |
| CGCGCA | 0.964 | 1.07 |  | 0.921 | 0.974 | 0.994 |
| CGCGAA | 0.958 | 0.986 | 0.96 | 0.968 | 0.986 | 0.994 |
| GCAAAG | 0.907 | 0.936 | 0.941 | 0.874 | 0.889 | 0.889 |
| GTATCG | 0.951 | 0.926 | 0.917 | 0.879 | 0.903 | 0.786 |
| GAATAG | 0.877 | 0.952 | 0.953 | 0.864 | 0.949 | 0.993 |
| TTTCAT | 1.11 |  |  | 1.09 | 1.2 | 1.15 |
| GTCTGG | 0.82 | 0.848 | 0.925 | 0.904 | 0.795 | 0.806 |

Looked up one by one from the entries so far (two):

| Sequence | binding signal (FLI1) | binding signal (EHF) | binding signal (SPIB) | binding signal (ETV5) | binding signal (ELF4) | binding signal (ETV3L) |
| --- | --- | --- | --- | --- | --- | --- |
| GCAAAG | 0.907 | 0.936 | 0.941 | 0.874 | 0.889 | 0.889 |
| GACCGA | 0.905 | 0.836 | 0.735 | 0.824 | 0.83 | 0.909 |
